Assay results reported in patent US20250169498A1, “SYNERGISTIC FUNGICIDAL INTERACTIONS OF A PICOLINAMIDE FUNGICIDE WITH OTHER FUNGICIDES AGAINST ASIAN SOYBEAN RUST” (CORTEVA AGRISCIENCE LLC, priority 2020, published 2025).
Where “and” joins values, the source holds several entries; their conditions need not be identical. Equal entries are not always repeated. The name of at least one read-out is uncertain.

Key:
[1] = system: Phakopsora pachyrhizi, PHAKPA; assay: 3-day curative (3 DC) PHAKPA test on soybean seedlings; type: in vivo; details: alone, rate 0.098 ppm
Method: (§1) Fungicides were evaluated vs. PHAKPA either alone or in binary or ternary mixtures by combining each fungicide with Compound I. Technical grades of materials were dissolved in 1.5 ml of acetone, which were then mixed with 13.5 ml of water containing 0.011% Tween 20. The fungicide solutions were applied onto soybean seedlings using an automated booth sprayer to run-off. All sprayed plants were allowed to air dry prior to further handling. Soybean plants (variety Williams 82) were grown in soil-less Metro mix, with one plant per pot. Two weeks old seedlings were used for testing. Plants were inoculated either 3 days prior to or 1 day after fungicide treatments. Plants were incubated for 24 h in a dark dew room at 22° C. and 100% RH then transferred to a growth room at 23° C. for disease to develop. Once disease fully expressed on untreated plants, disease severity was assessed on the sprayed monofoliate leaves.
(§2) Synergy factors were calculated using Colby's method. The expected disease control (% DC exp) of a mixture consisting of two or three components can be predicted by the following formula: […]
(§3) When disease fully developed on the control plants, infection levels were assessed on treated plants visually and scored on a scale of 0 to 100 percent. Percentage of disease control was then calculated using the ratio of disease on treated plants relative to control plants. […]

[2] = system: Phakopsora pachyrhizi, PHAKPA; assay: 1-day protectant (1 DP) PHAKPA test on soybean seedlings; type: in vivo; details: alone
Method: as §1, §2, §3

Compound	% DC obs [1]	% DC obs ([2]; rate 0.39 ppm)	% DC obs ([2]; rate 0.049 ppm)
CCC(=O)Oc1c(OC)ccnc1C(=O)N[C@@H](C)C(=O)O[C@@H](C)[C@@H](C)c1ccccc1C [Compound I]	14.8% and 5.8% and 9.2% and 14.3%	90.4% and 91.0% and 91.1%	–
CO/C=C(/C(=O)OC)c1ccccc1COc1cccc(C(F)(F)F)n1 [Picoxystrobin, methyl (E)-3-methoxy-2-[2-[[6-(trifluoromethyl)pyridin-2-yl]oxymethyl]phenyl]prop-2-enoate]	–	–	3.8% and 0.8%
